Assay results: publication doi:10.1101/2021.02.26.432832
Substitutions are numbered along the chain they refer to. These are yes or no findings as the source states them, for the method shown. Some binding calls cover weakened binding; strength is not graded here. Tags and fused reporters may be left off the sequences shown.

Chains of the proteins cited; added tags and fusions are not shown.
UniProt P38144: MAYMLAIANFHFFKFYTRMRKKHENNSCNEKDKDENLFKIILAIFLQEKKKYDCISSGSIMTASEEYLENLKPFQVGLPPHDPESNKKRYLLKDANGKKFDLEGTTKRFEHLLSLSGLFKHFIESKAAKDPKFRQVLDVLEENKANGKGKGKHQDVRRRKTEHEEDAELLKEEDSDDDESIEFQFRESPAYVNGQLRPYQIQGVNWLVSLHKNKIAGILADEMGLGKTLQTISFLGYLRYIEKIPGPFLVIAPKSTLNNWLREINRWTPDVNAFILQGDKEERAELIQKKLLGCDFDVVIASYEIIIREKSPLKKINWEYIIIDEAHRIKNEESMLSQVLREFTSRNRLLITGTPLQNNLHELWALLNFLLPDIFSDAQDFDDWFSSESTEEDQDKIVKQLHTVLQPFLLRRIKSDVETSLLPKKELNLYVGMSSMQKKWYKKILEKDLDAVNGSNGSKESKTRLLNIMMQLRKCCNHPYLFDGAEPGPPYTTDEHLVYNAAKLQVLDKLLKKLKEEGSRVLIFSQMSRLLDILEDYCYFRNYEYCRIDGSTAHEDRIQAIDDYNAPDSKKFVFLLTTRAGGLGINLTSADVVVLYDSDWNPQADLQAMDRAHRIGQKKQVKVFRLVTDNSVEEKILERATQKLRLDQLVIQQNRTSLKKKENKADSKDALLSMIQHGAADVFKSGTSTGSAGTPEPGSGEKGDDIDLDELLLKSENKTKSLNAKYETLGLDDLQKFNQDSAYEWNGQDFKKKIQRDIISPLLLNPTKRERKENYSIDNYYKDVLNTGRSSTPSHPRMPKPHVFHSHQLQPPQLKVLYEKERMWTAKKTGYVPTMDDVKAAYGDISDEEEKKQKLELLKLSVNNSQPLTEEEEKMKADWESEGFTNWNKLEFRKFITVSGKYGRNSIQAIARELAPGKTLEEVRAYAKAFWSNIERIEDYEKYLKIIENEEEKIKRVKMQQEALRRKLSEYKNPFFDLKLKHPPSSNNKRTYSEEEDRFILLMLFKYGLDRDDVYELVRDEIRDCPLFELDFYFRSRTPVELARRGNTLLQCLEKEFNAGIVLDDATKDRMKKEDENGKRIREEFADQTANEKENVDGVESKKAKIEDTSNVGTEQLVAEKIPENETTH

Columns and labels:
Assay in all cases: tandem affinity purification
[1] = target: T1, TAP-tagged wildtype Ioc4 in yeast (S. cerevisiae) (UniProt Q04213)
T1 sequence: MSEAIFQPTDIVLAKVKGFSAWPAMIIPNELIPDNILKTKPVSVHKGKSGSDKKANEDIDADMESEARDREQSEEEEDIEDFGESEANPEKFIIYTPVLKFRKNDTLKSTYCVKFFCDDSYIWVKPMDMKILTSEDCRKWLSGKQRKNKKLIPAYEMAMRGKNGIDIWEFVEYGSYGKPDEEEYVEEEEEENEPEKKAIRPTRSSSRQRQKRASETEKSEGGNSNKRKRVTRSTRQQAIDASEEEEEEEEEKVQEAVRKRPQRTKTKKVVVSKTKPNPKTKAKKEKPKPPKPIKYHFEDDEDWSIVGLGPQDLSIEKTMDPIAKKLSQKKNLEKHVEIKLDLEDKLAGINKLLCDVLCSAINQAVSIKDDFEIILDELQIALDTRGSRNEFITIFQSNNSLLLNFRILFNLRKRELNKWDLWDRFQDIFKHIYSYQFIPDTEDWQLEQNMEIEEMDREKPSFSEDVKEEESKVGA

[2] = target: T2, TAP-tagged Ioc4 with its PWWP domain deleted, in yeast (S. cerevisiae) (UniProt Q04213)
T2 sequence: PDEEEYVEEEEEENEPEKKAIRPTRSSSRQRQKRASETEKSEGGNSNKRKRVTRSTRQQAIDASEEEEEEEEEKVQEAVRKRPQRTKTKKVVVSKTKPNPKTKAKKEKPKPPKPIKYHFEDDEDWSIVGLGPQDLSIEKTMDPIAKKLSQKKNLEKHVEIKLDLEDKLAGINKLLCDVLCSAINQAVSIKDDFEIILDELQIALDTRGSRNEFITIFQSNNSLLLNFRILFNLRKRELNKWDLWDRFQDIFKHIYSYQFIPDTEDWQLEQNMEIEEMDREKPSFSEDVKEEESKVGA

[3] = target: T3, TAP-tagged Ioc4 with the insertion motif deleted, in yeast (S. cerevisiae) (UniProt Q04213)
T3 sequence: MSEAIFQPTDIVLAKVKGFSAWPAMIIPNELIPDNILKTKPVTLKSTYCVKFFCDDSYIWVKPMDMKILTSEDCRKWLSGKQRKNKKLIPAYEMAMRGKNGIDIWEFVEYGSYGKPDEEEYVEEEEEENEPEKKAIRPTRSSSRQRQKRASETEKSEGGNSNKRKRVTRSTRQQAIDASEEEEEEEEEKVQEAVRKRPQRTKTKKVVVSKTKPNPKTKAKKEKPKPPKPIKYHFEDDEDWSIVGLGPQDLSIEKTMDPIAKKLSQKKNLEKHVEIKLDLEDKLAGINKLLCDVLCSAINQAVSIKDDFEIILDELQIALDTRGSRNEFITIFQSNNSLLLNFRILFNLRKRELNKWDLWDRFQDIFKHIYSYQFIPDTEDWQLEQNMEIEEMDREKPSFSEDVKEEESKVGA

[4] = target: T4, TAP-tagged Ioc4 DNA-binding mutant [change] [change], in yeast (S. cerevisiae) (UniProt Q04213)
T4 sequence: T1 sequence with K149E, K150E

[5] = target: T5, TAP-tagged Ioc4 aromatic cage mutant [change], in yeast (S. cerevisiae) (UniProt Q04213)
T5 sequence: T1 sequence with W22A

Measured: binding

Isw1 (from UniProt P38144 1-1129) (enzyme)
binds: all assays above
